Reference: patent US6414113B1 (Biomolecular Engineering Research Institute, priority 1998, dated 2002)
Some peptides are written in HELM: one residue between dots, names in brackets for other building blocks, links after the first $.

Assay: peptide synthesis
Details: conjugation step, reverse HPLC

Substance: PEPTIDE1{[LCBiotin].H.S.Q.I.S.G.K.Y.Q.R.Y.L.K.D.A}$$$$V2.0
- final HPLC purity: more than 95%
